The supplement of paper PMC10849652
The other results are listed elsewhere or left out.

The chains behind the UniProt entries cited, without tags or fusion partners. Where a name states a change or a piece, a line headed by the entry shows the natural chain unless it says otherwise.
UniProt Q5VVQ6: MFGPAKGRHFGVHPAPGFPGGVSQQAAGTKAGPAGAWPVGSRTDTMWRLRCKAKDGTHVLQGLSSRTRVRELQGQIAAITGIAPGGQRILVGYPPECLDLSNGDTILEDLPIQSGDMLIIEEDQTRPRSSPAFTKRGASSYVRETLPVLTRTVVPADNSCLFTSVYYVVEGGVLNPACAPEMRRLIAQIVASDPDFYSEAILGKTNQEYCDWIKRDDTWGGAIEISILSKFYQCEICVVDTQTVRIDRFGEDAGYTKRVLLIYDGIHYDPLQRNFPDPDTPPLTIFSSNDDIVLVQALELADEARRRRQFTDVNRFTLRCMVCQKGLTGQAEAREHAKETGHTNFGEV
UniProt A8MPS7: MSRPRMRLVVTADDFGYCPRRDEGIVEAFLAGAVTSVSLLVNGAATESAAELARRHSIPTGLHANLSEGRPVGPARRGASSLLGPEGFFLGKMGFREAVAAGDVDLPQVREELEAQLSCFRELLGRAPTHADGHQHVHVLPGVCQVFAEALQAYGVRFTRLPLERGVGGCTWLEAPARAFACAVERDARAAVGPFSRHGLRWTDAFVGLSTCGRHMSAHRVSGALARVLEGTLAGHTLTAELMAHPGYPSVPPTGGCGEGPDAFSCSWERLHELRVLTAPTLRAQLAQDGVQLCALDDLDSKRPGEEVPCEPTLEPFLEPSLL
UniProt Q9NRH1: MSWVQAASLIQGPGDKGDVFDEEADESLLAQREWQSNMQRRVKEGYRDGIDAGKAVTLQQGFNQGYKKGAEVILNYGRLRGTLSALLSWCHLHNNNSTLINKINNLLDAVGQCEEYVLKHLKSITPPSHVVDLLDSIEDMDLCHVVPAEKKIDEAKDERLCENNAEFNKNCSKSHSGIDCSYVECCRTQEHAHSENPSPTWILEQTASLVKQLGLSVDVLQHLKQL
UniProt Q9BSR8: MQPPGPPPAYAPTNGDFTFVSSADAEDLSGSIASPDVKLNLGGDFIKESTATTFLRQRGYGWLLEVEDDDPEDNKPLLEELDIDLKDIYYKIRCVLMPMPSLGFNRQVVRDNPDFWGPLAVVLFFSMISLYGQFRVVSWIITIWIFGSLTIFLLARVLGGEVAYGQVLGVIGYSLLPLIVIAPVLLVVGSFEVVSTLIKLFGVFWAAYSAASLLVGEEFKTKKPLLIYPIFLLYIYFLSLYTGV
UniProt P62699: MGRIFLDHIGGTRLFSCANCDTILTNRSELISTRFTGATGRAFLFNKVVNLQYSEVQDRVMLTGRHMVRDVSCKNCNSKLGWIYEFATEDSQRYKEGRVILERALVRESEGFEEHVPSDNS
UniProt O75152: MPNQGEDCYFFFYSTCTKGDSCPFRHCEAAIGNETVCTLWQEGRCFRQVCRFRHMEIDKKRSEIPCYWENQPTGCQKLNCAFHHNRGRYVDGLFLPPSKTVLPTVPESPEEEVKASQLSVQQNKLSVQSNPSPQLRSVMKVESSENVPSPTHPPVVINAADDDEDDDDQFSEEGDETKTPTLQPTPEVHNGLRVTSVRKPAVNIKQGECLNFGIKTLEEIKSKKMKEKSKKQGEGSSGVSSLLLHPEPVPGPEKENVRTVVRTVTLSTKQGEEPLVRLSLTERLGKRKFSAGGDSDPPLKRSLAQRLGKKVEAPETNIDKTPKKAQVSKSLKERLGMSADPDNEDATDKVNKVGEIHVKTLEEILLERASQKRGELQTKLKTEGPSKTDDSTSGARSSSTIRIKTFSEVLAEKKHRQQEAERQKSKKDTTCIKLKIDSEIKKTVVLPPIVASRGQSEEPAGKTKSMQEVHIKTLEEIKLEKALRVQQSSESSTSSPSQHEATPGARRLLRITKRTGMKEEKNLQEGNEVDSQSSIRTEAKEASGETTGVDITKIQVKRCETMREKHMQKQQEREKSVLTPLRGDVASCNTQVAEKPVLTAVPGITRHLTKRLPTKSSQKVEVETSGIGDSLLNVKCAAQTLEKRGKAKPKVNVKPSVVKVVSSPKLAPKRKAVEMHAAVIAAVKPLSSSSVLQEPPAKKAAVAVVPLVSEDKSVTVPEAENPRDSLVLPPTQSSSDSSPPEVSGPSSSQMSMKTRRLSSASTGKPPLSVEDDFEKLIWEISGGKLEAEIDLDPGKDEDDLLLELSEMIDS
UniProt Q96NC0: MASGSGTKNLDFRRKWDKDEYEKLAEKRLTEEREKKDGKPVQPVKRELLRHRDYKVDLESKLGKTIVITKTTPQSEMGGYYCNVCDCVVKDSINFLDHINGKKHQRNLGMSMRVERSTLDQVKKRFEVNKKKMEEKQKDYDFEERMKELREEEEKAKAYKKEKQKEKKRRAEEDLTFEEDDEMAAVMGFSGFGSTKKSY
UniProt P54577: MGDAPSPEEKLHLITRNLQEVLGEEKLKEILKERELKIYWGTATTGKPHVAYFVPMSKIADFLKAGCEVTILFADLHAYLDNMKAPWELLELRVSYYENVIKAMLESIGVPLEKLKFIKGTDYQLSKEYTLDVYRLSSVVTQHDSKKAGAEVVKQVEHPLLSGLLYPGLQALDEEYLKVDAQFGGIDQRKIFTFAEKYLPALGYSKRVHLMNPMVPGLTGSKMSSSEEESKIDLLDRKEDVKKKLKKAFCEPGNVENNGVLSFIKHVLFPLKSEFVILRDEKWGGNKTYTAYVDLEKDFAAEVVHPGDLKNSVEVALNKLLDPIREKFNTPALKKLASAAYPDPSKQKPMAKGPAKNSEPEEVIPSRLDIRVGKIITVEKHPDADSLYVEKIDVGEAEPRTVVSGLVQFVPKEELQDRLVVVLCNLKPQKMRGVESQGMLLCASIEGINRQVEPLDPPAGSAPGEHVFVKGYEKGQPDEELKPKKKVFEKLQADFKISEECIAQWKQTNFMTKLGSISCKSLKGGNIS
UniProt Q9NUD5: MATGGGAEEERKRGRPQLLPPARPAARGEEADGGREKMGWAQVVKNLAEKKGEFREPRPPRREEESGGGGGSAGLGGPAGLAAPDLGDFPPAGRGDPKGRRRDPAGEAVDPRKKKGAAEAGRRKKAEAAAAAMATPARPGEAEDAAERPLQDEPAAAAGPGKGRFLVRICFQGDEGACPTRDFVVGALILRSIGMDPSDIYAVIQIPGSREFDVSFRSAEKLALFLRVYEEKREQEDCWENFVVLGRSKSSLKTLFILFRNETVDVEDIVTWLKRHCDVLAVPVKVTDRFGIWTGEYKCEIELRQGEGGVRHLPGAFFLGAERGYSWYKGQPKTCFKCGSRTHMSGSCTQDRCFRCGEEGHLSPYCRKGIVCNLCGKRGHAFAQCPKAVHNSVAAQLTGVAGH
UniProt P67809, whole entry, looked up: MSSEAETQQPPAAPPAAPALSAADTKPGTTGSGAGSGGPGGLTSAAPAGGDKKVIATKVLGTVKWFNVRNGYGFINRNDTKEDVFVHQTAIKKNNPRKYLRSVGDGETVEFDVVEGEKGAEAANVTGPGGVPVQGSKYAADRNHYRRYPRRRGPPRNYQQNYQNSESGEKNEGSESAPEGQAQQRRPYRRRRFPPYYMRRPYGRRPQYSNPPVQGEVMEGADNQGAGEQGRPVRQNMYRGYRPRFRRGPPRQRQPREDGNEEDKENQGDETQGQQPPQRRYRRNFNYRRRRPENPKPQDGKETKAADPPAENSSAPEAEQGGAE
UniProt Q6PJT7: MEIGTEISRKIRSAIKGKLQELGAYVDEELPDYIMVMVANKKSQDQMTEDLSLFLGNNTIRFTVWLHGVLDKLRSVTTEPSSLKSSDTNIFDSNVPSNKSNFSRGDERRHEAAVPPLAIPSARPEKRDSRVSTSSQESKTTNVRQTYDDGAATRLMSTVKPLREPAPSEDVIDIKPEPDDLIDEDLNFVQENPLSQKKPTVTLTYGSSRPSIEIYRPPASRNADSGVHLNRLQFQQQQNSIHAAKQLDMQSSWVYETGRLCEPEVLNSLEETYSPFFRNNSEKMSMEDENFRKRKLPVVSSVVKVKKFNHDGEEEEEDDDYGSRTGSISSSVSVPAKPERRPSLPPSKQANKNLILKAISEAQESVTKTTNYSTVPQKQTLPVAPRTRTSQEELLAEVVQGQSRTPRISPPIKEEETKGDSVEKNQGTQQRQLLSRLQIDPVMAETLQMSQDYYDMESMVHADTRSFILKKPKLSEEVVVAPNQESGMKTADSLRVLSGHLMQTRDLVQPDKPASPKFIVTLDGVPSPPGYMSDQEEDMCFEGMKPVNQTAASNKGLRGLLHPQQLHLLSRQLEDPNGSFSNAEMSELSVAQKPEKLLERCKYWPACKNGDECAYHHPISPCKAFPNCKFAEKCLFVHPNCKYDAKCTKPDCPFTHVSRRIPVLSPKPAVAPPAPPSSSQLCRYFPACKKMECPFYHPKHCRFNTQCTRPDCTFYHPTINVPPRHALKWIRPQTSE
UniProt O15498: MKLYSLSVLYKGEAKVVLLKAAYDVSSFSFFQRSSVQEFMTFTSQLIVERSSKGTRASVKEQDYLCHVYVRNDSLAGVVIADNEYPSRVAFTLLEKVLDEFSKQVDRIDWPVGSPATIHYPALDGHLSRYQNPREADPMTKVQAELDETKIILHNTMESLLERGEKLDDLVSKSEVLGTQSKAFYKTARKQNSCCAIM
UniProt P25490, whole entry, looked up: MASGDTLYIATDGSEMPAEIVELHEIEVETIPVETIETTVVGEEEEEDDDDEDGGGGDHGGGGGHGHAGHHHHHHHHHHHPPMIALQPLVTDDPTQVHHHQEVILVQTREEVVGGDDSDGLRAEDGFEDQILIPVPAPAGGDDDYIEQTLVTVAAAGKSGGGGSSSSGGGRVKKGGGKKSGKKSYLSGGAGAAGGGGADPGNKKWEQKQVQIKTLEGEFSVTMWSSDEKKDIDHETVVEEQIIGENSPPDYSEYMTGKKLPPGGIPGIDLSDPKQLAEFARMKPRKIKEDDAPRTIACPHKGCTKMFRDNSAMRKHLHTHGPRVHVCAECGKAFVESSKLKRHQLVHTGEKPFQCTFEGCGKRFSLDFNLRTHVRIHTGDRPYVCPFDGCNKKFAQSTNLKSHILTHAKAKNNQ
UniProt Q96TA2: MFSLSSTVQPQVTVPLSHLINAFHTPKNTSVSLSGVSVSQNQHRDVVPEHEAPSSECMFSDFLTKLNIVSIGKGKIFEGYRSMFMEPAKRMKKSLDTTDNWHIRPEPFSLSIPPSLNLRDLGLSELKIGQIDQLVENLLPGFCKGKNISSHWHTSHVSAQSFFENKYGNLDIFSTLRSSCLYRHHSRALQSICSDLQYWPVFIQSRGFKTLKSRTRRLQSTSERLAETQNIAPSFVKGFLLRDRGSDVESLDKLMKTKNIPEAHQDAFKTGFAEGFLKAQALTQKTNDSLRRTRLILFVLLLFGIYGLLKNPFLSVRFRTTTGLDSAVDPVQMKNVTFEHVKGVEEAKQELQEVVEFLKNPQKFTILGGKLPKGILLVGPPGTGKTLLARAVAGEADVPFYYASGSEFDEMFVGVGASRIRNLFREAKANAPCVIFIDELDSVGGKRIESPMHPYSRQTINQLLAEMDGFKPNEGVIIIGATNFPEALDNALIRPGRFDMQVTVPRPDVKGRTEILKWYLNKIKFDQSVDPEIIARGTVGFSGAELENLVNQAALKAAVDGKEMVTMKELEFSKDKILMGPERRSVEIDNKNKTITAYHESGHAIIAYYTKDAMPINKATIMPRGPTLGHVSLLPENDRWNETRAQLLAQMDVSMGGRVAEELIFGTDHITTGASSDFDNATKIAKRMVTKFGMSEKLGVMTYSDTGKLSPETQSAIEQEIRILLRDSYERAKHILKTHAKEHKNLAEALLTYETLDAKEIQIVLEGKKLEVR
UniProt O95365: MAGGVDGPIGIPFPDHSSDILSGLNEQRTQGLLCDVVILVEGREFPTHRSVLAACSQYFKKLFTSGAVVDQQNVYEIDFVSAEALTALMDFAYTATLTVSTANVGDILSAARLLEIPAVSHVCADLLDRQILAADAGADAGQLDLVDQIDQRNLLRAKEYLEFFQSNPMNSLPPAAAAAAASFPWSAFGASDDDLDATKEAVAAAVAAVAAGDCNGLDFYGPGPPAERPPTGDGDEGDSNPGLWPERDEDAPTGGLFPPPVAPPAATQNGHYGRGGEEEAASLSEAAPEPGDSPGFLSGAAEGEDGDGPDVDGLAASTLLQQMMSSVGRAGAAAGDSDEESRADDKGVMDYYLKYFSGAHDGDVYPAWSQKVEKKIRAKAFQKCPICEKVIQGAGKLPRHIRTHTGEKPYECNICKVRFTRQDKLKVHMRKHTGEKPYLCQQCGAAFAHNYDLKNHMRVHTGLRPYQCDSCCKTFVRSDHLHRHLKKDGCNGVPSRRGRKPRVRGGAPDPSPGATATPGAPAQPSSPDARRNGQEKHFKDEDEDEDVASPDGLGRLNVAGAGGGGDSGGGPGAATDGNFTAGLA
UniProt Q5W0Z9: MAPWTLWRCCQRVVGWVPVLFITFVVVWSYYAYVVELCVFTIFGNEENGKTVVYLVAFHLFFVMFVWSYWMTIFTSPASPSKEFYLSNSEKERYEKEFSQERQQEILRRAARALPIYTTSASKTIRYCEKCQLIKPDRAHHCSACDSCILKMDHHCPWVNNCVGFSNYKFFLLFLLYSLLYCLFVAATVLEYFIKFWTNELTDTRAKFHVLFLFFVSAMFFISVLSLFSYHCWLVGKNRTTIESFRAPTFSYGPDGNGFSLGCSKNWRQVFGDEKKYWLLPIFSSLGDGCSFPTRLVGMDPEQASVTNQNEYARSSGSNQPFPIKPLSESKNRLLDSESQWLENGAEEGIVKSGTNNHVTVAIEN

Key:
Assay in all cases: log2 fold change, soluble protein after heating vs DMSO (PISA); higher = thermal stabilisation; K562 cells, 10 uM, 30 min; active = over 0.2 and 3.5 SD of the protein, either way, in both replicates (recomputed)
[1] = compound: C1=CC=C(C=C1)[C@H](COC2=CC3=C(C=C2)NC(=O)N3)NC(=O)C4=CC=CN(C4=O)CC5=CC(=C(C=C5)F)F
Procedure, shortened: (§1)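 Aliquots of K562 cells (2×10^6 cells/mL) treated with 10 μM compound for 30 min were heated for 3 min over 48°C-58°C. After pooling and extraction in PBS with 0.5% NP-40 at 4°C, soluble protein from a 21,000xg, 90 min spin was quantified by TMTpro 16plex LC-MS/MS with channel sums equalised. Thermal stability is expressed against control samples, from duplicates, as a log2 fold change.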

[2] = compound: CC1=C(SC2=C1C(=N[C@H](C3=NN=C(N32)C)CC(=O)N)C4=CC=C(C=C4)Cl)C
Procedure, shortened: as §1

[3] = compound: CC1=C2C(=CC=C1)N=C(N(C2=O)C3=CC=CC=C3C)CN4C=NC5=C(N=CN=C54)N
Procedure, shortened: as §1

[4] = compound: Cc1sc2c(c1C)C(c1ccc(Cl)cc1)=N[C@@H](CC(=O)OC(C)(C)C)c1nnc(C)n1-2
Procedure, shortened: as §1

[5] = compound: c1ccc([C@@H]2C[C@H]2NC2CCNCC2)cc1
Procedure, shortened: as §1

Target	log2 fold change [1]	log2 fold change [2]	log2 fold change [3]	log2 fold change [4]	log2 fold change [5]
YWHAB (UniProt P31946)	inactive: -0.024	inactive: 0.024	inactive: -0.01	inactive: -0.004	inactive: -0.03
ZNF207 isoform 2 (UniProt O43670)	inactive: -0.066	inactive: 0.106	inactive: -0.14	inactive: 0.004	inactive: 0.152
YARS2 (UniProt Q9Y2Z4)	inactive: -0.107	inactive: 0.025	inactive: 0.234	inactive: -0.073	inactive: -0.04
YOD1 (UniProt Q5VVQ6)	inactive: -0.071	inactive: 0.035	inactive: 0.063	inactive: -0.005	inactive: 0.046
ZADH2 (UniProt Q8N4Q0)	inactive: 0.012	inactive: -0.039	inactive: -0.076	inactive: -0.026	inactive: 0.008
ZC2HC1A (UniProt Q96GY0)	inactive: 0.031	inactive: 0.021	inactive: -0.105	inactive: 0.066	inactive: 0.071
YDJC (UniProt A8MPS7)	inactive: 0.069	inactive: 0.01	inactive: 0.056	inactive: -0.007	inactive: -0.074
XPO6 (UniProt Q96QU8)	inactive: 0.35	inactive: 0.019	inactive: 0.082	inactive: 0.015	inactive: -0.072
YES1 (UniProt P07947)	inactive: 0.025	inactive: -0.056	inactive: 0.126	inactive: -0.005	inactive: -0.038
ZNF217 (UniProt O75362)	inactive: -0.017	inactive: 0.048	inactive: 0.163	inactive: -0.003	active: 0.306
ZMIZ2 (UniProt Q8NF64)	inactive: -0.026	inactive: 0.031	inactive: 0.096	inactive: -0.152	inactive: 0.04
XPOT (UniProt O43592)	inactive: -0.028	inactive: 0.06	inactive: 0.083	inactive: -0.002	inactive: -0.001
XXYLT1 (UniProt Q8NBI6)	inactive: -0.015	inactive: 0.045	inactive: 0.102	inactive: -0.017	inactive: -0.067
ZBTB43 (UniProt O43298)	inactive: -0.105	inactive: 0.013	inactive: 0.055	inactive: -0.097	inactive: -0.08
ZFPM1 (UniProt Q8IX07)	inactive: -0.196	inactive: 0.093	inactive: 0.017	inactive: -0.198	inactive: 0.103
ZBTB21 (UniProt Q9ULJ3)	inactive: -0.215	inactive: -0.152	inactive: 0.058	inactive: 0.244	inactive: 0.006
XPNPEP3 (UniProt Q9NQH7)	inactive: -0.004	inactive: 0.018	inactive: 0.07	inactive: -0.009	inactive: 0.006
YAE1 (UniProt Q9NRH1)	inactive: -0.021	inactive: -0.111	inactive: 0.016	inactive: -0.014	inactive: 0.095
YIPF4 (UniProt Q9BSR8)	inactive: -0.027	inactive: 0.001	inactive: -0.019	inactive: 0.027	inactive: 0.046
YPEL5 (UniProt P62699)	inactive: -0.066	inactive: 0.044	inactive: 0.016	–	inactive: -0.081
ZNF143 (UniProt P52747)	inactive: 0.015	inactive: -0.013	inactive: -0.022	inactive: 0.064	inactive: 0.107
ZFPL1 (UniProt O95159)	inactive: 0.09	inactive: 0.084	inactive: 0.063	inactive: -0.042	inactive: -0.032
ZNF148 (UniProt Q9UQR1)	inactive: 0.103	inactive: 0.015	–	inactive: -0.044	inactive: -0.115
ZC3H11A (UniProt O75152)	inactive: 0.142	inactive: -0.129	inactive: -0.056	–	inactive: 0.167
ZMAT2 (UniProt Q96NC0)	inactive: 0.029	inactive: -0.025	inactive: -0.009	inactive: -0.042	inactive: -0.016
YARS (UniProt P54577)	inactive: -0.035	inactive: 0.019	inactive: 0.084	inactive: -0.028	inactive: -0.054
ZMPSTE24 (UniProt O75844)	inactive: -0.009	inactive: 0.052	inactive: -0.006	inactive: -0.064	inactive: 0.02

Target	log2 fold change [1]	log2 fold change [2]	log2 fold change [3]	log2 fold change [4]	log2 fold change [5]
YWHAG (UniProt P61981)	inactive: 0.009	inactive: -0.036	inactive: -0.076	inactive: -0.014	inactive: -0.002
YWHAZ (UniProt E7ESK7)	inactive: 0.066	inactive: 0.009	–	inactive: 0.083	inactive: 0.052
ZCCHC3 (UniProt Q9NUD5)	inactive: 0.075	inactive: -0.205	inactive: -0.145	inactive: 0.244	inactive: 0.04
ZMIZ1 (UniProt Q9ULJ6)	inactive: -0.023	inactive: 0.083	inactive: 0.044	inactive: 0.031	inactive: 0.041
YIPF5 isoform 3 (UniProt Q969M3)	inactive: 0	inactive: 0.025	inactive: 0.018	inactive: 0.002	inactive: 0.08
YWHAE (UniProt P62258)	inactive: 0.02	inactive: 0.002	inactive: -0.002	inactive: -0.016	inactive: 0.021
YBX1 (UniProt P67809)	inactive: 0.105	inactive: -0.228	inactive: -0.143	inactive: 0.115	inactive: 0.052
YAF2 isoform 5 (UniProt Q8IY57)	inactive: 0.034	inactive: -0.04	inactive: 0.072	inactive: -0.029	inactive: 0.024
ZC3H14 (UniProt Q6PJT7)	inactive: 0.028	inactive: -0.036	inactive: -0.024	inactive: 0.128	inactive: 0.107
YKT6 (UniProt O15498)	inactive: 0.014	inactive: 0.012	inactive: 0.025	inactive: -0.001	inactive: -0.01
XK (UniProt P51811)	inactive: -0.025	inactive: 0.159	inactive: -0.105	–	inactive: -0.071
ZC3H4 (UniProt Q9UPT8)	inactive: 0.064	inactive: -0.176	inactive: -0.162	inactive: 0.064	inactive: 0.042
XPO4 (UniProt Q9C0E2)	inactive: -0.003	inactive: 0.056	inactive: 0.025	inactive: 0.007	inactive: 0.006
YBX3 isoform 2 (UniProt P16989)	inactive: 0.075	inactive: -0.297	inactive: -0.251	inactive: 0.251	inactive: 0.099
YY1 (UniProt P25490)	inactive: 0.013	inactive: -0.006	inactive: -0.033	inactive: -0.015	inactive: 0.084
ZMYM3 (UniProt Q14202)	inactive: -0.03	inactive: 0.055	inactive: -0.02	inactive: 0.043	inactive: 0.103
ZFAND5 (UniProt O76080)	inactive: -0.025	inactive: -0.21	inactive: -0.129	inactive: -0.024	inactive: 0.143
ZCCHC9 (UniProt Q8N567)	inactive: 0.173	inactive: -0.074	inactive: -0.202	inactive: 0.222	inactive: 0.023
ZNF239 (UniProt Q16600)	inactive: -0.17	inactive: -0.151	inactive: -0.06	inactive: -0.082	inactive: 0.06
YME1L1 (UniProt Q96TA2)	inactive: 0.021	inactive: -0.039	inactive: 0.021	inactive: 0.048	inactive: 0.032
ZC3H13 (UniProt Q5T200)	inactive: -0.03	inactive: 0.008	inactive: 0.313	inactive: 0.169	inactive: 0.183
XPO1 (UniProt O14980)	inactive: -0.064	inactive: 0.053	inactive: 0.044	inactive: -0.011	inactive: -0.013
ZNF207 isoform 4 (UniProt O43670)	inactive: 0.005	inactive: 0	inactive: -0.046	inactive: -0.016	inactive: -0.013
ZBTB7A (UniProt O95365)	inactive: 0.06	inactive: -0.187	–	inactive: 0.189	inactive: 0.078
ZDHHC20 (UniProt Q5W0Z9)	inactive: -0.023	inactive: -0.001	inactive: -0.047	inactive: -0.061	inactive: 0.067
YEATS4 (UniProt O95619)	inactive: -0.006	inactive: -0.015	inactive: -0.007	inactive: 0.045	inactive: 0.077

A stretch from the list above:
Target	log2 fold change [1]	log2 fold change [2]	log2 fold change [3]	log2 fold change [4]	log2 fold change [5]
YBX3 isoform 2 (UniProt P16989)	inactive: 0.075	inactive: -0.297	inactive: -0.251	inactive: 0.251	inactive: 0.099
YY1 (UniProt P25490)	inactive: 0.013	inactive: -0.006	inactive: -0.033	inactive: -0.015	inactive: 0.084
ZMYM3 (UniProt Q14202)	inactive: -0.03	inactive: 0.055	inactive: -0.02	inactive: 0.043	inactive: 0.103
ZFAND5 (UniProt O76080)	inactive: -0.025	inactive: -0.21	inactive: -0.129	inactive: -0.024	inactive: 0.143
ZCCHC9 (UniProt Q8N567)	inactive: 0.173	inactive: -0.074	inactive: -0.202	inactive: 0.222	inactive: 0.023
